The values that follow come from publication doi:10.1101/2022.07.01.497917.

Sequences of proteins named here, by UniProt entry; tags and fusion partners are left off. A change or cut given only in a name is not applied to a line headed by its entry. Residues count along the entry.
UniProt Q9NY15: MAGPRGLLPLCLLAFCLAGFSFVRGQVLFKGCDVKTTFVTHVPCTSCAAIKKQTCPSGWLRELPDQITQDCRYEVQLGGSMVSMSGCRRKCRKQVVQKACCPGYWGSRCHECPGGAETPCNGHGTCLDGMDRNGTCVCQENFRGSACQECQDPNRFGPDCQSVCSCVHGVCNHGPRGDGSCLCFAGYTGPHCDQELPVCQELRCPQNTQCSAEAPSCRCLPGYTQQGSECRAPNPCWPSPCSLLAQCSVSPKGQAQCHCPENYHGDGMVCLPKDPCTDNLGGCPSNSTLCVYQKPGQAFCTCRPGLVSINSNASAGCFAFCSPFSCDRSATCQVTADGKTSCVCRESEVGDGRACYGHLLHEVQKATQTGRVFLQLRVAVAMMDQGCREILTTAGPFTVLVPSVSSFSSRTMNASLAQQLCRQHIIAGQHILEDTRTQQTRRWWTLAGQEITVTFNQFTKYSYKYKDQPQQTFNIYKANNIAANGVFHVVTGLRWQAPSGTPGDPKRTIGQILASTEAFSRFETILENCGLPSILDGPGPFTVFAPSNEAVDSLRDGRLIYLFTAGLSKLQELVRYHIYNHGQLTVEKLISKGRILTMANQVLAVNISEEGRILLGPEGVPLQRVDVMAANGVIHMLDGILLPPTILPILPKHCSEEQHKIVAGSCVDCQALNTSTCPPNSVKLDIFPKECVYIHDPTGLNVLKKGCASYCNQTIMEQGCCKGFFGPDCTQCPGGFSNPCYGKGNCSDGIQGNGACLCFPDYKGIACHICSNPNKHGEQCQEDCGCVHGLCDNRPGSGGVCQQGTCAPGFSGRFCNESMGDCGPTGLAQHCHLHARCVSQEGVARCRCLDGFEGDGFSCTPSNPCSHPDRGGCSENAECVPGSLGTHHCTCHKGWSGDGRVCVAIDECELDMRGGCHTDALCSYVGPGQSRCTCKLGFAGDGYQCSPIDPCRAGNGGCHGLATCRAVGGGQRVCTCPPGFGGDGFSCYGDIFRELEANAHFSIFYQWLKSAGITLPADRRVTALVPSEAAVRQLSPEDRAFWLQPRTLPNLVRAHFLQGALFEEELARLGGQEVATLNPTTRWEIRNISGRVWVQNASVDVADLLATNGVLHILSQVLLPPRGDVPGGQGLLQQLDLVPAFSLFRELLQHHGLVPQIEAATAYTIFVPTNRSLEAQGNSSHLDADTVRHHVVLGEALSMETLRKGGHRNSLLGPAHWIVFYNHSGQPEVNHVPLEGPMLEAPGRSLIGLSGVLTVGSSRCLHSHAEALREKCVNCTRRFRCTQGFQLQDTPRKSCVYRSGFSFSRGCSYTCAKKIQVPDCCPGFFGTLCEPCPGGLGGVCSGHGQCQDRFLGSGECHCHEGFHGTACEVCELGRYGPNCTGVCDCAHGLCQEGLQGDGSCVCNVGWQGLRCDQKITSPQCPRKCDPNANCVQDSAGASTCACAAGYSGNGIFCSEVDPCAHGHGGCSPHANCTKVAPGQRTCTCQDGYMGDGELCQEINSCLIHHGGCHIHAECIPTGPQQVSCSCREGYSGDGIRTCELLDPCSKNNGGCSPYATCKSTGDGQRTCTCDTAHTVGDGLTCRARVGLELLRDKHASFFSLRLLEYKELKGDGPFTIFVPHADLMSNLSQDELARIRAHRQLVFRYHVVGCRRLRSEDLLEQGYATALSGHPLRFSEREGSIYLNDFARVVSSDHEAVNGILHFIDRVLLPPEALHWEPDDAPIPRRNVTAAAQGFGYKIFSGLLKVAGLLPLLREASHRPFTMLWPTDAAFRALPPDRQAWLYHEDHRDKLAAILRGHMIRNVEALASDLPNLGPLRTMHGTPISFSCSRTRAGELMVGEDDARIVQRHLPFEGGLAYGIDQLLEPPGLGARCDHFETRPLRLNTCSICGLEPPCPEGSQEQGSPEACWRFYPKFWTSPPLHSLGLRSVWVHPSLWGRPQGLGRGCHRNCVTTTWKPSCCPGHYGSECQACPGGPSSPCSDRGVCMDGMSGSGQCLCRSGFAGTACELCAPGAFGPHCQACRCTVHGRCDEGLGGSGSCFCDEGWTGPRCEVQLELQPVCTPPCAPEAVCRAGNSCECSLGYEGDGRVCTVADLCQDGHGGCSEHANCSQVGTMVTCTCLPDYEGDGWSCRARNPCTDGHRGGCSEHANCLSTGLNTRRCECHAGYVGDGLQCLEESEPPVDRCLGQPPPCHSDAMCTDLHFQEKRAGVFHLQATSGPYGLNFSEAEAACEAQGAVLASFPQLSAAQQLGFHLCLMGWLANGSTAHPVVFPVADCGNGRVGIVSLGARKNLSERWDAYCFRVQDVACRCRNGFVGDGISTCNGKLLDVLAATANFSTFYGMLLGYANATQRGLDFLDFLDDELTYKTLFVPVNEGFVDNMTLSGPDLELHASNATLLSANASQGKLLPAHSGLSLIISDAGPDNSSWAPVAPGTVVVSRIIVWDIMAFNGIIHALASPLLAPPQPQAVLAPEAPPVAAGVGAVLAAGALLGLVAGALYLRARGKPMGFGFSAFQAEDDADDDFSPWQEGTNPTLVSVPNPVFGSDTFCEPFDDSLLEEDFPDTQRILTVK
UniProt Q8WWQ8: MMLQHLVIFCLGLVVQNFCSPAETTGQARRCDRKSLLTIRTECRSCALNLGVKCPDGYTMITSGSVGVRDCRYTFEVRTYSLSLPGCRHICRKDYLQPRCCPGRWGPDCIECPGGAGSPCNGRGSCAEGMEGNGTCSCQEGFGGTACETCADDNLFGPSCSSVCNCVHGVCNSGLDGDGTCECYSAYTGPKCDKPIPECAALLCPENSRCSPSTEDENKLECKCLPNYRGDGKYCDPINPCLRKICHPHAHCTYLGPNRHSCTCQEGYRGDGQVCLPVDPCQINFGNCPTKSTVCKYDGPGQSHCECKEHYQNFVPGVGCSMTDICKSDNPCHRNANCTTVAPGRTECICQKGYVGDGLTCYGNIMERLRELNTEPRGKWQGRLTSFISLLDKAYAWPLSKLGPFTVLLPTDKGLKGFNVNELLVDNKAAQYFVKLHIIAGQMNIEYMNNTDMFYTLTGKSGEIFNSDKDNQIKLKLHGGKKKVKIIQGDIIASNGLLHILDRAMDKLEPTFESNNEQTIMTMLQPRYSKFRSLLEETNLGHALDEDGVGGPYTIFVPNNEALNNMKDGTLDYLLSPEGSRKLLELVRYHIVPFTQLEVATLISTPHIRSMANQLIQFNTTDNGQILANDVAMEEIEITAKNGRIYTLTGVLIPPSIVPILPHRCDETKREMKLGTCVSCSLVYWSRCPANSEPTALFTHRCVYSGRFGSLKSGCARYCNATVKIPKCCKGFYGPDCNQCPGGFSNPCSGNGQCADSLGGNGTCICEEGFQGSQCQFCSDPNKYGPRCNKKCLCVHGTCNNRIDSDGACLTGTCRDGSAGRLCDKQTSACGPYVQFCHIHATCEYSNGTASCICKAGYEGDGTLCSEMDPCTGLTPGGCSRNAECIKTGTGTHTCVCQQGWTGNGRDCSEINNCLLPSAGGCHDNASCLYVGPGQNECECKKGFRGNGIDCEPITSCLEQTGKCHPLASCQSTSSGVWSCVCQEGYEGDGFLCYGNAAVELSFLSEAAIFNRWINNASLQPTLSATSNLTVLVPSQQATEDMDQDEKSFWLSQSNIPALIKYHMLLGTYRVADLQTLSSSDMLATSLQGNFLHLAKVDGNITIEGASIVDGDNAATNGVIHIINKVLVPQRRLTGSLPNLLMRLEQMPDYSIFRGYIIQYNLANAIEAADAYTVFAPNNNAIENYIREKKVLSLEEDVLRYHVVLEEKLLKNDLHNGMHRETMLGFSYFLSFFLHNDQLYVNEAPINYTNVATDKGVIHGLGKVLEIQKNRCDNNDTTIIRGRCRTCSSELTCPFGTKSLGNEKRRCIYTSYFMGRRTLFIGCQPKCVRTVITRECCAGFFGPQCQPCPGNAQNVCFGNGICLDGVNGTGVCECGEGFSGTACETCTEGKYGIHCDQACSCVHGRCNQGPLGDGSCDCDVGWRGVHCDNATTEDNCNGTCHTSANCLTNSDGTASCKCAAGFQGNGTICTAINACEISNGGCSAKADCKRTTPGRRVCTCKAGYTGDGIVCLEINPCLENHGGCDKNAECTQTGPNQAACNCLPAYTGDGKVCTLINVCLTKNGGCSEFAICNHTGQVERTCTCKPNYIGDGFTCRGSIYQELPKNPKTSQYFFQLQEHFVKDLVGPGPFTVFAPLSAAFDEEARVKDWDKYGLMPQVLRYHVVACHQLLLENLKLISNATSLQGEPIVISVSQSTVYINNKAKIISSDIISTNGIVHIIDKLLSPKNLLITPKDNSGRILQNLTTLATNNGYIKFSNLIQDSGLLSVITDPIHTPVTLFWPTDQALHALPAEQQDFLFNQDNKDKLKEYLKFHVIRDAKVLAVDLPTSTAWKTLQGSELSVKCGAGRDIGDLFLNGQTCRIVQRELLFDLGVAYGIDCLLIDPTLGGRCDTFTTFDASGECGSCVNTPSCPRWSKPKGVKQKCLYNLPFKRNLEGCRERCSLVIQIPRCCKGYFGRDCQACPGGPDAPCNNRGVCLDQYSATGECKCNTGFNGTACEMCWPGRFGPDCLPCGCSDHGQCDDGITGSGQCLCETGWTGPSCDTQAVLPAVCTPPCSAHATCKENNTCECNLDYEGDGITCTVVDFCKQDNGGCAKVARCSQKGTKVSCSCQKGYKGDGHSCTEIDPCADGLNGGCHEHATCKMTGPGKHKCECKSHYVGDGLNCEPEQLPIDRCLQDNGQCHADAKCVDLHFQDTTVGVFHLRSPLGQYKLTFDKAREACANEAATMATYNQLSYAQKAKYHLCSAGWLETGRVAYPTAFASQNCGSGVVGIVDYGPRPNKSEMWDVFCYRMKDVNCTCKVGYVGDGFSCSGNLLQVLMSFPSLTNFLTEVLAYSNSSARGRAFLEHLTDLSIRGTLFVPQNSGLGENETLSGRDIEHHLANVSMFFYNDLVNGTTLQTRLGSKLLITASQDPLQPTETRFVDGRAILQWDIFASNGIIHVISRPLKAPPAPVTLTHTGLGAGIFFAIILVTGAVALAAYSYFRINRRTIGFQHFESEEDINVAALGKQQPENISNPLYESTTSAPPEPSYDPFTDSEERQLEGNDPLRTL
UniProt Q15063, residues 22-836: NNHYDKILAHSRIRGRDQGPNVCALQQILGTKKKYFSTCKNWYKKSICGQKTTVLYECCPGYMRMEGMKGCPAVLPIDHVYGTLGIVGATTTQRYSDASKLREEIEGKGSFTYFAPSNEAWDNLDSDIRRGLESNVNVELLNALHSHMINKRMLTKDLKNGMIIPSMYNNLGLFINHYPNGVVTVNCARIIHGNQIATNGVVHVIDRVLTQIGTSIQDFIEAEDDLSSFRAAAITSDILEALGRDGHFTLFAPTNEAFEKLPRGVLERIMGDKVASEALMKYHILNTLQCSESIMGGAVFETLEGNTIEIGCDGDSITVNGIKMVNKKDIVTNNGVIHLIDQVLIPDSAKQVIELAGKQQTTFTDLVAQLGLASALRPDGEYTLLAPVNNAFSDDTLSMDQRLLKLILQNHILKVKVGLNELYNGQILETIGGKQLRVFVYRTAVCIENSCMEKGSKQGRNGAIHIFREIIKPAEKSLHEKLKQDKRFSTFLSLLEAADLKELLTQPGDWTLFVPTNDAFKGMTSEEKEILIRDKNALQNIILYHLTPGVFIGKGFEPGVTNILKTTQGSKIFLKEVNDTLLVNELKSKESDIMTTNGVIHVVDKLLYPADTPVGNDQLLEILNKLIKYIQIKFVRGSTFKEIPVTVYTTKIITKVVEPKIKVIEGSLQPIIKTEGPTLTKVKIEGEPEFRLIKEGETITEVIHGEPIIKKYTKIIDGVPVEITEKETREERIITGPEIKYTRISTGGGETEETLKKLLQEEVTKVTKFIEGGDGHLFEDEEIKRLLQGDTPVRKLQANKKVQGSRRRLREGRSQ

Assay [1] addresses GST-tagged fragment of human Stab1, hStab1 F1-2 (human) (UniProt Q9NY15). Kind of assay: pull-down.
Assay [2] deals with GST-tagged fragment of human Stab2, hStab2 F1-2 (human) (UniProt Q8WWQ8). Kind of assay: pull-down.

These are yes or no findings as the source states them, for the method shown. Binding seen in cells or lysates may run through a third protein. Binding can be weak; no strength is given.

Regarding “recombinant human Periostin (POSTN) (from UniProt Q15063 22-836) (ligand)”, the binding entry in assay [1] and in assay [2] was “binds” in each case.

B1: recombinant human Transforming growth factor, beta-induced (TGFBi) (ligand, UniProt Q15582 24-683)
chain: GPAKSPYQLVLQHSRLRGRQHGPNVCAVQKVIGTNRKYFTNCKQWYQRKICGKSTVISYECCPGYEKVPGEKGCPAALPLSNLYETLGVVGSTTTQLYTDRTEKLRPEMEGPGSFTIFAPSNEAWASLPAEVLDSLVSNVNIELLNALRYHMVGRRVLTDELKHGMTLTSMYQNSNIQIHHYPNGIVTVNCARLLKADHHATNGVVHLIDKVISTITNNIQQIIEIEDTFETLRAAVAASGLNTMLEGNGQYTLLAPTNEAFEKIPSETLNRILGDPEALRDLLNNHILKSAMCAEAIVAGLSVETLEGTTLEVGCSGDMLTINGKAIISNKDILATNGVIHYIDELLIPDSAKTLFELAAESDVSTAIDLFRQAGLGNHLSGSERLTLLAPLNSVFKDGTPPIDAHTRNLLRNHIIKDQLASKYLYHGQTLETLGGKKLRVFVYRNSLCIENSCIAAHDKRGRYGTLFTMDRVLTPPMGTVMDVLKGDNRFSMLVAAIQSAGLTETLNREGVYTVFAPTNEAFRALPPRERSRLLGDAKELANILKYHIGDEILVSGGIGALVRLKSLQGDKLEVSLKNNVVSVNKEPVAEPDIMATNGVVHVITNVLQPPANRPQERGDELADSALEIFKQASAFSRASQRSVRLAPVYQKLLERMKH
Turning to B1, the binding result in assay [1] and in assay [2] was “binds” each time.
